From patent US20050148553A1, “Use of tigecycline, alone, or in combination with rifampin to treat osteomyelitis and/or septic arthritis” (priority 2003, published 2005)
For some assays here: At least one read-out could not be matched to a standard name with certainty. For some assays here: For at least one compound, name, drawing or mass did not settle the structure.

Legend:
[1] = Whole body autoradiography after 30-minute 3 mg/kg IV infusion of [^14C]-tigecycline; assay type: in vivo, Sprague-Dawley rats
Description: Male Sprague-Dawley and Long-Evans rats were obtained from Charles River Breeding Laboratories, Raleigh, N.C., and were quarantined for at least one week prior to the start of the study. […] The dosing solution was diluted and radioassayed directly in Ultima Gold scintillation counting cocktail (Packard Inc.). […] All pumps were calibrated prior to the administration of the compound. Rats were anesthetized with isoflurane prior to cardiac puncture exsanguination at the prescribed times after dosing. […] Control whole blood was collected from male Sprague-Dawley rats into tubes containing sodium heparin. Pooled blood was used to prepare the calibration standards and quality control samples. The standards were used to construct the standard curve for the quantification of radiolabeled drug distribution in tissues of whole blood cryosections. The quality controls, which were embedded in the same CMC block with each rat, were used for assessing intra- and inter-section variation in the thickness of rat whole-body cryosections. […] Immediately following euthanasia, each rat was totally immersed in a bath of hexane and dry ice (−75° C.) until frozen. Each carcass was dried and stored at −30° C. until embedded. […] Each frozen rat was sagitally sectioned at −20° C. A sufficient number of sections were collected to ensure sampling of all tissues of interest. The sections were dehydrated overnight in a cryochamber and then rapidly transferred to a dessicator containing CaSO4 to prevent condensation of atmospheric moisture while equilibrating to room temperature. The sections were mounted on cardboard and labeled with [^14C]-labeled black ink with a unique identification number. […] A small piece of Scotch tape was placed over the dried radioactive ink to prevent the contamination of the storage phosphor screens. Phosphor imaging plates, BAS-SR 2025 (Fuji Photo Film Co., Japan) were exposed to bright visible light for 20 minutes using an IP eraser (Raytest, USA Inc., New Castle, Del.) to remove background radiation. Sections and calibration blood standards were concurrently placed in direct contact with Ips and exposed for 7 days. All sections were stored at room temperature in a lead shielding box to minimize background levels. Phosphor images were generated using a Fujifilm BAS-5000 Bio-Imaging Analyzer and quantitated by MCID M2 Software, version 3.2 (Imaging Research Inc., St. Catherines, Ontario, Canada). The STDs and QCs were analyzed using the circular sampling tool in the MCID software program. Areas of interest in whole-body sections were manually outlined with the regional sampling tool to generate count data. Radioactive concentrations in select tissues were determined by digital analysis of the resulting autoradiograms on the basis of a calibration curve. […] The linear regression curve was then used to determine the concentration of unknown radioactivity of study samples. […] Blood samples were combusted using a Model 307 sample oxidizer (Packard Instrument Company). […] Research Triangle Park, N.C.), which applies a model-independent approach and standard procedures as described in Gibaldi and Perrier. Gibaldi, Pharmacokinetics, 1982. […] For IV infusion dosing, C30 min was the concentration at 30 minutes, the first sampling time point. The maximum plasma concentration (Cmax) and the corresponding time of peak concentration following IV administration were obtained directly by numerical inspection from the individual concentration-time data. The terminal half-life was calculated by the ratio of ln2/λz where λz is derived from the terminal slope of the concentration time curve. The area under the plasma concentration versus time curve from zero to infinity was calculated using the trapezoidal rule, where Clast is the last measurable plasma concentration. […]

[2] = as above; assay type: in vivo, Long-Evans rats
Description: Male Sprague-Dawley and Long-Evans rats were obtained from Charles River Breeding Laboratories, Raleigh, N.C., and were quarantined for at least one week prior to the start of the study. […] The dosing solution was diluted and radioassayed directly in Ultima Gold scintillation counting cocktail (Packard Inc.). […] All pumps were calibrated prior to the administration of the compound. Rats were anesthetized with isoflurane prior to cardiac puncture exsanguination at the prescribed times after dosing. Sprague-Dawley and Long-Evans rats were sacrificed one per time point at 0.5, 8.5, 24, 72, 168 and 336 hr post-dose. […] Phosphor images were generated using a Fujifilm BAS-5000 Bio-Imaging Analyzer and quantitated by MCID M2 Software, version 3.2 (Imaging Research Inc., St. Catherines, Ontario, Canada). The STDs and QCs were analyzed using the circular sampling tool in the MCID software program. […] Radioactive concentrations in select tissues were determined by digital analysis of the resulting autoradiograms on the basis of a calibration curve. […] The linear regression curve was then used to determine the concentration of unknown radioactivity of study samples. […] The terminal half-life was calculated by the ratio of ln2/λz where λz is derived from the terminal slope of the concentration time curve. […]

A. baumanii = test: Susceptibility of patient isolate; assay type: cell-based, Acinetobacter baumannii; details: A. baumanii from patient bone

## CN(C)c1cc(NC(=O)CNC(C)(C)C)c(O)c2c1C[C@H]1C[C@H]3[C@H](N(C)C)C(O)=C(C(N)=O)C(=O)[C@@]3(O)C(O)=C1C2=O [[^14C]-Tigecycline]
[1]; Adrenal Gland
  Cmax: 3580 Ng equiv/g
[1]; Blood
  Cmax: 1277 Ng equiv/g
[1]; Bone
  Cmax: 3794 Ng equiv/g
[1]; Bone Marrow
  Cmax: 4376 Ng equiv/g
[1]; Fat
  Cmax: 450 Ng equiv/g
[1]; Heart
  Cmax: 5657 Ng equiv/g
[1]; Lung
  Cmax: 2981 Ng equiv/g
[1]; Lymph Node
  Cmax: 3473 Ng equiv/g
[1]; Muscle
  Cmax: 2260 Ng equiv/g
[1]; Pancreas
  Cmax: 4437 Ng equiv/g
[1]; Pituitary
  Cmax: 3693 Ng equiv/g
[1]; Plasma
  Cmax: 895 Ng equiv/g
[1]; Salivary Gland
  Cmax: 6313 Ng equiv/g
[1]; Skin
  Cmax: 1929 Ng equiv/g
[1]; Testes
  Cmax: 361 Ng equiv/g
[1]; Thymus
  Cmax: 2528 Ng equiv/g
[1]; Thyroid
  Cmax: 2992 Ng equiv/g
[2]; Blood
  Cmax: 1296 Ng equiv/g
[2]; Plasma
  Cmax: 975 Ng equiv/g

## C[C@@H](O)[C@H]1C(=O)N2C(C(=O)O)=C(SCCN=CN)C[C@H]12 [imipenem]
A. baumanii
  susceptibility of the organism: susceptible
